Earlier results in article PMC2606674, “Metabolism of no-carrier-added 2-[^18F]fluoro-L-tyrosine in rats” (BMC Medical Physics, 2008).

Test system: mice brain
Settings: cited from earlier work

SMILES | effect of an inhibitor for protein synthesis on uptake in mice brain
N[C@@H](Cc1ccc(O)cc1[18F])C(=O)O [2-[^18F]Tyr, 2-[^18F]fluoro-L-tyrosine] | partially reduced
[11CH3]SCC[C@H](N)C(=O)O [L-[S-methyl-^11C]methionine, L-[S-methyl-^11C]-methionine, reference compound] | not influenced
